Data on two molecules can be found in article PMC5940738.

Amino acid sequences for entries named in this document (tags omitted). A change or cut given only in a name is not applied to a line headed by its entry. Residues count along the entry.
UniProt Q28021: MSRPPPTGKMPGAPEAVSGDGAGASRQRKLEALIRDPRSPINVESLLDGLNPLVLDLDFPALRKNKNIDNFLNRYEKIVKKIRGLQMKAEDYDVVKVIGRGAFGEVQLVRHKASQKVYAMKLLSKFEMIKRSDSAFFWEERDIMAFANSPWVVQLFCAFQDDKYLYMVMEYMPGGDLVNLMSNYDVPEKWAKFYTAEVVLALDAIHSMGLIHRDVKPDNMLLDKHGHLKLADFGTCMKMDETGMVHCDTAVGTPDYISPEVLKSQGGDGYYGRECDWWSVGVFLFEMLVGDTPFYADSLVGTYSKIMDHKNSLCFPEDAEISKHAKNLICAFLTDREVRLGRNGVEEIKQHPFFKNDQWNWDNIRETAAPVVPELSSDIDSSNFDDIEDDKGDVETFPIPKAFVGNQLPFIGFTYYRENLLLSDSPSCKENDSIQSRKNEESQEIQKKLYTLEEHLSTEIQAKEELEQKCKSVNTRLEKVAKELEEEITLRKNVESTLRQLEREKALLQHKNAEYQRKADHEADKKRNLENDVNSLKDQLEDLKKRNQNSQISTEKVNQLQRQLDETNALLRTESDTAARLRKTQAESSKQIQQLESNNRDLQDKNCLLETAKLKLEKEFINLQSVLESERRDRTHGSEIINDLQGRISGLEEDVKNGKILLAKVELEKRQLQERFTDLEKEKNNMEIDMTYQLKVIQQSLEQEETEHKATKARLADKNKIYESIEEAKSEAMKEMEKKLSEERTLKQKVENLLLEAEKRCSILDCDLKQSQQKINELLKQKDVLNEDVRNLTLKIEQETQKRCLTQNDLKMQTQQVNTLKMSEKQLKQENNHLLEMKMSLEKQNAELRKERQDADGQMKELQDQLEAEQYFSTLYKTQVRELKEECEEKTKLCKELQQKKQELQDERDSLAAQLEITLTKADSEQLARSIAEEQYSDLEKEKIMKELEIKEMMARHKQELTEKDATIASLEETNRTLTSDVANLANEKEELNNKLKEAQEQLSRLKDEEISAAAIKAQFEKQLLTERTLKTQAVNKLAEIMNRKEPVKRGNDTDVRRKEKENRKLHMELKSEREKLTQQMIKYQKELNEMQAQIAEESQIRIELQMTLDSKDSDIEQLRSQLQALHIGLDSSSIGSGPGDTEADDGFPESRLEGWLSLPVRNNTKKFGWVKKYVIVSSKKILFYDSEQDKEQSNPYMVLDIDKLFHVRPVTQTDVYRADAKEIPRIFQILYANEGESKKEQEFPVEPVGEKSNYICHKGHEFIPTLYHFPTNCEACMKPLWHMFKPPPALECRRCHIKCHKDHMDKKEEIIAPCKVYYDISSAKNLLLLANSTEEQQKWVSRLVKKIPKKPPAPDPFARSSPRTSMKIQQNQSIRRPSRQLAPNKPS
UniProt Q3UFB7, residues 34-799: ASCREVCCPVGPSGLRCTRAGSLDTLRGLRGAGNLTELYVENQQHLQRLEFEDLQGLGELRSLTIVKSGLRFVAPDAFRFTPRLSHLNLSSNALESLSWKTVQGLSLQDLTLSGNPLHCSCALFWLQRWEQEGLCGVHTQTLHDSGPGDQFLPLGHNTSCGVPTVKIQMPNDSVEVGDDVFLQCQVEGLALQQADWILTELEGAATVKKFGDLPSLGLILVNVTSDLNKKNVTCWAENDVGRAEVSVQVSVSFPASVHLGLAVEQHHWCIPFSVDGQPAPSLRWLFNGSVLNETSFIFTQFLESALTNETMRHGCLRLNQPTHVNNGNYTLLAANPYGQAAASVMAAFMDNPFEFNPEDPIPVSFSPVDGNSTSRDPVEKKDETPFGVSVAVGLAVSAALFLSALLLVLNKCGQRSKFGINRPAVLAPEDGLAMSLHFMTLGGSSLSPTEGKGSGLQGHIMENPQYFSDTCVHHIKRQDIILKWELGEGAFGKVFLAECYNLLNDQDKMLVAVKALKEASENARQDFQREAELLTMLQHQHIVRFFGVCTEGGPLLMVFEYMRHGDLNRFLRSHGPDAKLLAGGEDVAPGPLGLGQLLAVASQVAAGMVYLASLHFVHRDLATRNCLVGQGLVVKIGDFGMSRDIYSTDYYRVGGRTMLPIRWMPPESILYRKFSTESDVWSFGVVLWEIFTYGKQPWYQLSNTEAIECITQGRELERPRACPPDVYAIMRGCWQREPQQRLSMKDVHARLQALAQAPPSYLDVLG

These are yes or no findings as the source states them, for the method shown. In cells and extracts the contact can be indirect. Some entries that bind do so weakly or less than the wild type. Where a sequence is shown, tags or fusion partners need not be part of it.

Test [1] concerns the target T1, Linx-V5 (mouse) (UniProt Q5RKR3).
T1 sequence: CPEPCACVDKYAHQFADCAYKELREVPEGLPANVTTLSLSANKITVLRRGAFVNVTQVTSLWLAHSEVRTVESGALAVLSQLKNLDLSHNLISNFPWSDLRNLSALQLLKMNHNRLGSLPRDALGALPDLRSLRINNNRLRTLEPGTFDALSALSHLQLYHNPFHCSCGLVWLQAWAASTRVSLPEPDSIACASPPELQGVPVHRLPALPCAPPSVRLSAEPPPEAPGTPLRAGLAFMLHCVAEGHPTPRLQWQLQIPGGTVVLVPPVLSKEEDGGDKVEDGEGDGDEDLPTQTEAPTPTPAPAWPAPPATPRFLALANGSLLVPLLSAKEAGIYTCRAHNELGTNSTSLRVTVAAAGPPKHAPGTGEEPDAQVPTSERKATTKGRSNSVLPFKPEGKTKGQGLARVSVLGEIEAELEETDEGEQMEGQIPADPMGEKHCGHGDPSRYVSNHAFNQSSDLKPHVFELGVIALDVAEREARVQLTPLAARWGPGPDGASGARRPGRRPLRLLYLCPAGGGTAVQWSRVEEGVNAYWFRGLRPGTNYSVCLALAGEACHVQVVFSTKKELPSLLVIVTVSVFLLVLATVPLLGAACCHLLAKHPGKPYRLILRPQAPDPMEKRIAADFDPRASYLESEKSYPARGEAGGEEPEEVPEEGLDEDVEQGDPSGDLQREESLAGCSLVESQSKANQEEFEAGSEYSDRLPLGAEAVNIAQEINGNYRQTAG
In words: co-IP; lysates of N1E-115 cells transfected with control or Linx-V5 vector immunoprecipitated with V5 antibody, Western blot.

The target of test [2] is GFP-Rho-kinase (UniProt Q28021). In words: co-IP; 293FT cells transfected with Linx-SF and either GFP or GFP-Rho-kinase, IP with GFP antibody, Western blot. In general terms: Immunoblotting shows a protein as a band on a membrane.

Consider “TrkA in N1E-115 cells (from UniProt Q3UFB7 34-799) (receptor)”, for which the binding entry in test [1] was “binds”.

B1: Linx-SF (mouse Linx fused with a streptavidin-Flag tag) (protein, UniProt Q5RKR3 20-745)
chain: T1 sequence
As for B1, the binding entry in test [2] was “binds”.
